Reference: PMC10448441

Sequences of proteins named here, by UniProt entry; tags and fusion partners are left off. A change or cut given only in a name is not applied to a line headed by its entry. Residues count along the entry.
UniProt P05106, 27-788: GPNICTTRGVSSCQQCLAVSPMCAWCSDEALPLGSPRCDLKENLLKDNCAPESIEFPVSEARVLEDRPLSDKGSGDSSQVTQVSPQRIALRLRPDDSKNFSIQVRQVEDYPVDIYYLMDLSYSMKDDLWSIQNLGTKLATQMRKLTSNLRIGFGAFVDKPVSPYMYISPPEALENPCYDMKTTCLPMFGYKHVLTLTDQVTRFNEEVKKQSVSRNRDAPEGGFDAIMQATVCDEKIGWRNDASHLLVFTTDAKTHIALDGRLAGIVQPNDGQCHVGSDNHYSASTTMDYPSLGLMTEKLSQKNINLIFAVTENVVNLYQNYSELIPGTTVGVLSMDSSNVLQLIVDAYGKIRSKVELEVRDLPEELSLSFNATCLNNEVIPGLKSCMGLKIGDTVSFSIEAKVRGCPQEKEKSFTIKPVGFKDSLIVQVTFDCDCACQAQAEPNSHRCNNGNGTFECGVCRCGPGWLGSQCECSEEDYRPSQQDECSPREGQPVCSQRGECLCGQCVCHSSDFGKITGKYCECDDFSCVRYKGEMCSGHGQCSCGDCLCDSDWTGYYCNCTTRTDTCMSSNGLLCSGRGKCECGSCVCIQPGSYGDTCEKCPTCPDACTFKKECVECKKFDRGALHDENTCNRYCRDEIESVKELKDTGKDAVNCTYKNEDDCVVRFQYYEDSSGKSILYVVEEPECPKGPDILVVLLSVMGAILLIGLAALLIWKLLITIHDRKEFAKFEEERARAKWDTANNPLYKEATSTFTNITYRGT
UniProt P08514, 639-887: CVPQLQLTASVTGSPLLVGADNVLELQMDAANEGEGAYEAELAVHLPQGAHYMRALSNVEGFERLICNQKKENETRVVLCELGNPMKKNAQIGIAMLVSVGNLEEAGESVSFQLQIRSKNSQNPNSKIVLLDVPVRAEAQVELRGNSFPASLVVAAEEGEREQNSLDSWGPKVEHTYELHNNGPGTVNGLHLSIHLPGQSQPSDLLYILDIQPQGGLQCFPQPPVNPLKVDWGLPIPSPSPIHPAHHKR
UniProt P06756: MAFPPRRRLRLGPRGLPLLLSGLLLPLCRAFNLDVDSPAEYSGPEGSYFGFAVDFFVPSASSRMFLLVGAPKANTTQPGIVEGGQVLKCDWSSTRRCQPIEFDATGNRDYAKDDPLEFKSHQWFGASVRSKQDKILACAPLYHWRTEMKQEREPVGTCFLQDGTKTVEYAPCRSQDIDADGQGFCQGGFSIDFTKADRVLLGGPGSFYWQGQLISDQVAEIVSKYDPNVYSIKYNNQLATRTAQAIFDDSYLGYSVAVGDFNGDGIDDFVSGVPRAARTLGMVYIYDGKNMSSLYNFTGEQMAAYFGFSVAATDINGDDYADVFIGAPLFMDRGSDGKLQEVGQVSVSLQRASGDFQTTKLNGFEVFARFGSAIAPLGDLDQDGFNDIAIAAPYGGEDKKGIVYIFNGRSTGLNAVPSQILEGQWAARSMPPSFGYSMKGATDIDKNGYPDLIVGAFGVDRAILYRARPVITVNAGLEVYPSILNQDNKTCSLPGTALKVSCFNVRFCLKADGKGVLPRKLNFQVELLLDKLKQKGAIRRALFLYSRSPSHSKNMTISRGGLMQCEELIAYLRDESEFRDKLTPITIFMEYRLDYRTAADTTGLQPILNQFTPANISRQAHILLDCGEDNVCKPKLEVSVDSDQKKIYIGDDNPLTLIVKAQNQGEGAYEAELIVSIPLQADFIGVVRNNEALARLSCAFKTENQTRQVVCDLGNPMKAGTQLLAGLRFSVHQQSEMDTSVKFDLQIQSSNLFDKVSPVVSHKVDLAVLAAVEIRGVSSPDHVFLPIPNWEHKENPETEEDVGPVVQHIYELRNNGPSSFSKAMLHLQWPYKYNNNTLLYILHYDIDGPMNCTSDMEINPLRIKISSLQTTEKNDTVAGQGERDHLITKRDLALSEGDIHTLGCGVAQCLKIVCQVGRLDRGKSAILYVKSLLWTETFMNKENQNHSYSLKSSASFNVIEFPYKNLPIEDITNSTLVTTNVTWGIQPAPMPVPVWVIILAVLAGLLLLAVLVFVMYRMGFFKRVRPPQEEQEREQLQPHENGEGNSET

Key:
[1] = target: Integrin beta3 in membrane protein extract of A549-ITGB3-OE cells (Homo sapiens) (UniProt P05106); assay: pull-down; settings: biotin aptamer, membrane proteins, formaldehyde crosslink after binding, anti-ITGB3 blot; PBS with 5 mM MgCl2, 4.5 g/L glucose, 100 ug/mL tRNA; 4 C, 30 min; pH not stated; pull-down on ice 30 min; protein in a lysate after overexpression; label: FAM, Cy5 or biotin by assay; folded or branched DNA
[2] = target: Integrin alphaIIb partial (CSB-EP011865HU) (Homo sapiens) (UniProt P08514); assay: flow cytometry; settings: alphaIIb subunit (apparently on beads); PBS with 5 mM MgCl2, 4.5 g/L glucose, 100 ug/mL tRNA; 4 C, 30 min; pH not stated; pull-down on ice 30 min; commercial protein; residues 639-887; label: FAM, Cy5 or biotin by assay; folded or branched DNA
[3] = target: Integrin alphaV (ab114240) (Homo sapiens) (UniProt P06756); assay: flow cytometry; settings: alphaV subunit (apparently on beads); PBS with 5 mM MgCl2, 4.5 g/L glucose, 100 ug/mL tRNA; 4 C, 30 min; pH not stated; pull-down on ice 30 min; commercial protein; label: FAM, Cy5 or biotin by assay; folded or branched DNA
[4] = target: Integrin beta3, endogenous on U87 cells (UniProt P05106); assay: flow cytometry; settings: live U87 cells, 500 nM Cy5 aptamer; PBS with 5 mM MgCl2, 4.5 g/L glucose, 100 ug/mL tRNA; 4 C, 30 min; pH not stated; pull-down on ice 30 min; protein on the cell surface; label: FAM, Cy5 or biotin by assay; folded or branched DNA
[5] = target: Integrin beta3 (CD61, GP3A), overexpressed on A549-ITGB3-OE cells (Homo sapiens) (UniProt P05106); assay: flow cytometry; settings: PBS with 5 mM MgCl2, 4.5 g/L glucose, 100 ug/mL tRNA, 4 C, 30 min, pH not stated, pull-down on ice 30 min
[6] = target: Integrin beta3, endogenous on HeLa cells (UniProt P05106); assay: flow cytometry; settings: live HeLa cells, 500 nM Cy5 aptamer; PBS with 5 mM MgCl2, 4.5 g/L glucose, 100 ug/mL tRNA; 4 C, 30 min; pH not stated; pull-down on ice 30 min; protein on the cell surface; label: FAM, Cy5 or biotin by assay; folded or branched DNA
[7] = live A549-ITGB3-OE cells, protein on the cell …, label: fluorophore (FAM or Cy5), single-stranded DNA

| Sequence | binding result [5, 7] | further results |
| --- | --- | --- |
| TCCACGATGTAGGATCCACATGAGCGCTCCTGTTACCCTG [S10yh2] |  | binding result [1]: binds; binding result [2]: no binding; binding result [3]: no binding; binding result [4]: binds; binding result ([5]; 5 mM Ca2+ added to Mg2+ buffer, binding unaffected, protein on the cell surface, label: FAM, Cy5 or biotin by assay, folded or branched DNA): binds; binding result ([5]; DMEM + 10% FBS, no significant change, protein on the cell surface, label: FAM, Cy5 or biotin by assay, folded or branched DNA): binds; binding result ([5]; EDTA added (Mg2+ chelated), protein on the cell surface, label: FAM, Cy5 or biotin by assay, folded or branched DNA): binds more weakly; binding result [6]: binds |
| TTCACGCATAGCTCCACGATGTAGGATCCACATGAGCGCTCCTGTTACCCTGCCTATGCGTGAA [S10yh1] |  | binding result ([5]; live A549-ITGB3-OE cells, equivalent to S10yh2, protein on the cell surface, label: fluorophore (FAM or Cy5), folded or branched DNA): binds |
| TTCAGCACTCCACGCATAGCACATGTAGTGTGTGCGCCACAATTTGGGGCAACCAACTGACCTATGCGTGCTACCGTGAA [S2] | binds |  |
| TTCAGCACTCCACGCATAGCAGCCGAAGCGACAAGCTTGTGTAGAAGTTGGAAGCGTCCGCCTATGCGTGCTACCGTGAA [S4] | binds |  |
| TTCAGCACTCCACGCATAGCATACCCTGCCGCAAGCAGCTAATATTGATTAGTGACCGCCCCTATGCGTGCTACCGTGAA [S3] | binds |  |
| TTCAGCACTCCACGCATAGCGAAACGGTGCCATAAGATCAAGCCACATGACATGACCTTCCCTATGCGTGCTACCGTGAA [S7] | binds |  |
| TTCAGCACTCCACGCATAGCGAGACACGCAGTGTAGATGGTCAGGGCGTAGTTGAGCTTGCCTATGCGTGCTACCGTGAA [S8] | binds |  |
| TTCAGCACTCCACGCATAGCTGACTGCTCCTTAGGTGTGACCTAAAGTGTTCTGTTTTCGCCTATGCGTGCTACCGTGAA [S9] | binds |  |
| TTCAGCACTCCACGCATAGCTGGCTATTCCGAGATTCCTTGCGCGAACTTCGTTGCTACACCTATGCGTGCTACCGTGAA [S1] | binds |  |
| TTCAGCACTCCACGCATAGCTGTGTTCACAAGATAAAGGGCTCCTAGGCTATGTGCGTCTCCTATGCGTGCTACCGTGAA [S6] | binds |  |
| TTCAGCACTCCACGCATAGCTTCTGACTGAATCGCTCGGTGTCGAAACAGGTGAGCCTTACCTATGCGTGCTACCGTGAA [S5] | binds |  |

For part of these data: Negatives hold for the conditions tested. For part of these data: For at least one entry, the source does not settle the construct or the ends of the probe. For part of these data: Where cells or extracts were used, other partners may take part. For part of these data: The comparison behind a weaker result is the experiment's own reference, which may not be listed here. For part of these data: At least one verdict rests on a figure or table, not on a statement of the authors.
